Measurements as given in paper PMC4449203.
No constants are given. Whether binding was seen depends on the method and setting. Binding seen in cells or lysates may run through a third protein. Some binding calls cover weakened binding; strength is not graded here. Where a sequence is shown, tags or fusion partners need not be part of it. Blank lines part the entries; values can stand above or below the molecule they belong to.

Amino acid sequences for entries named in this document (tags omitted). Residues count along the entry.
UniProt P11362, residues 22-822: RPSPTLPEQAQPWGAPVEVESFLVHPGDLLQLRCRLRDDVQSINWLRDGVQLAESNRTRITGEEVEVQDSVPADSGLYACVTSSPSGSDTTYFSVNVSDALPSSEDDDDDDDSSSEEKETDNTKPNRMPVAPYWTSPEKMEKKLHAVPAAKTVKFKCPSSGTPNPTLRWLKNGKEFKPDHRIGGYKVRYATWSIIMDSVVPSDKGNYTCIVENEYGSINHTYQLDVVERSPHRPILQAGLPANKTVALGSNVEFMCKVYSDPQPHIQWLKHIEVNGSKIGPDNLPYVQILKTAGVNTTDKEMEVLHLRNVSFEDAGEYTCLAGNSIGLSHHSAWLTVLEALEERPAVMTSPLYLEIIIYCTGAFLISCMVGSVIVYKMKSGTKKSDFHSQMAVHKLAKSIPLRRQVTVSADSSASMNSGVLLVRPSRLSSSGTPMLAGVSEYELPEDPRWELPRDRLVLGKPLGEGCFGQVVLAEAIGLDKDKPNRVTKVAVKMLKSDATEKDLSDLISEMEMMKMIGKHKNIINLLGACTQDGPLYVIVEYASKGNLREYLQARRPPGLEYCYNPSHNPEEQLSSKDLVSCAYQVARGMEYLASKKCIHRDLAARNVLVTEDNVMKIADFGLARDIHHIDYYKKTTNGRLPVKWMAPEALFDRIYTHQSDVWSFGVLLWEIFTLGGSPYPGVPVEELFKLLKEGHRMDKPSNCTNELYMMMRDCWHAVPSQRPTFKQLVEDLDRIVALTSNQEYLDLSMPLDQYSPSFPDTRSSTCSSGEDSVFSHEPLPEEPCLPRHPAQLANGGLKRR
UniProt P22607, residues 23-806: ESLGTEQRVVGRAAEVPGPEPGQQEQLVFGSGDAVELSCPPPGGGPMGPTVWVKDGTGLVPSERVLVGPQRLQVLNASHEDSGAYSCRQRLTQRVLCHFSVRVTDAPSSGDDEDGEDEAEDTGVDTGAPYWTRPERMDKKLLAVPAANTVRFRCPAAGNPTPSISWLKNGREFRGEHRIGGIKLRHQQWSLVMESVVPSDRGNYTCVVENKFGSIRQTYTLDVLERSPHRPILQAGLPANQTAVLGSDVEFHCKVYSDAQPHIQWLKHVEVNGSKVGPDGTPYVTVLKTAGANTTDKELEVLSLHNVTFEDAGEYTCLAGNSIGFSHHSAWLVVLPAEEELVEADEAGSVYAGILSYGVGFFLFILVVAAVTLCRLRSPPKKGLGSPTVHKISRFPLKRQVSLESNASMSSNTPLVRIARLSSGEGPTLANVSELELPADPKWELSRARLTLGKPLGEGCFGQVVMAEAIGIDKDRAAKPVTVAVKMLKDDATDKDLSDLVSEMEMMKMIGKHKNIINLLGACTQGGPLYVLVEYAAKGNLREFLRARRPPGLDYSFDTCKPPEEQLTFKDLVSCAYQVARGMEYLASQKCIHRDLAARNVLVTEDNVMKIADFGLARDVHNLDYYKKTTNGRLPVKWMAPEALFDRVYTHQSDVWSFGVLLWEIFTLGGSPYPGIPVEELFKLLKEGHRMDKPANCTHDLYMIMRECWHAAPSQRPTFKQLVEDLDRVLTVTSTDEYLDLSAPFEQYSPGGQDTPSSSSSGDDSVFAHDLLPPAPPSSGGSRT
UniProt P29317, residues 24-976: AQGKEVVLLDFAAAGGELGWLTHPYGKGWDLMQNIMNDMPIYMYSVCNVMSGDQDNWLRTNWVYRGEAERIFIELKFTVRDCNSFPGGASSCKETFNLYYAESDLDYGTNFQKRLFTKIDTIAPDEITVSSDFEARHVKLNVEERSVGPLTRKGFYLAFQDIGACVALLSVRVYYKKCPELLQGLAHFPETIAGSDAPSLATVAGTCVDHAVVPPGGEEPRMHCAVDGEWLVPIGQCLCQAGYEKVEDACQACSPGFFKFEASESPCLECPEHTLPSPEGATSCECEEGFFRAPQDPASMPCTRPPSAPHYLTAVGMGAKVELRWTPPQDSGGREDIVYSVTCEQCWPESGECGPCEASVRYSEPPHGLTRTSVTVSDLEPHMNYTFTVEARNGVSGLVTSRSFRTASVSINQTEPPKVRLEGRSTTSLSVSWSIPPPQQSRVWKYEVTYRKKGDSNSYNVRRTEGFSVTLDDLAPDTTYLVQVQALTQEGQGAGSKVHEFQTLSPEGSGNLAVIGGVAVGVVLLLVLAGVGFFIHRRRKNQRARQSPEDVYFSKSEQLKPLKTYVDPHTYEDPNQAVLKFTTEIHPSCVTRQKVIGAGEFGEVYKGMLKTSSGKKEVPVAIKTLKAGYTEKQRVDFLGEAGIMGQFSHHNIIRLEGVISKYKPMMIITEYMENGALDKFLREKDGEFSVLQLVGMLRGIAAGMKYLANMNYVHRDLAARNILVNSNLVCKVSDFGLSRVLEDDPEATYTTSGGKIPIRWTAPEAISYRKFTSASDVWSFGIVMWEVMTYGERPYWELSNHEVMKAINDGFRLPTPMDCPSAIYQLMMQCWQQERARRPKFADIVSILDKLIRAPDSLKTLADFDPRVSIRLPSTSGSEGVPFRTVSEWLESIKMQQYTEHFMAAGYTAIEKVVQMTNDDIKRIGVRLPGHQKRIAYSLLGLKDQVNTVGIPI
UniProt P54756, residues 25-1037: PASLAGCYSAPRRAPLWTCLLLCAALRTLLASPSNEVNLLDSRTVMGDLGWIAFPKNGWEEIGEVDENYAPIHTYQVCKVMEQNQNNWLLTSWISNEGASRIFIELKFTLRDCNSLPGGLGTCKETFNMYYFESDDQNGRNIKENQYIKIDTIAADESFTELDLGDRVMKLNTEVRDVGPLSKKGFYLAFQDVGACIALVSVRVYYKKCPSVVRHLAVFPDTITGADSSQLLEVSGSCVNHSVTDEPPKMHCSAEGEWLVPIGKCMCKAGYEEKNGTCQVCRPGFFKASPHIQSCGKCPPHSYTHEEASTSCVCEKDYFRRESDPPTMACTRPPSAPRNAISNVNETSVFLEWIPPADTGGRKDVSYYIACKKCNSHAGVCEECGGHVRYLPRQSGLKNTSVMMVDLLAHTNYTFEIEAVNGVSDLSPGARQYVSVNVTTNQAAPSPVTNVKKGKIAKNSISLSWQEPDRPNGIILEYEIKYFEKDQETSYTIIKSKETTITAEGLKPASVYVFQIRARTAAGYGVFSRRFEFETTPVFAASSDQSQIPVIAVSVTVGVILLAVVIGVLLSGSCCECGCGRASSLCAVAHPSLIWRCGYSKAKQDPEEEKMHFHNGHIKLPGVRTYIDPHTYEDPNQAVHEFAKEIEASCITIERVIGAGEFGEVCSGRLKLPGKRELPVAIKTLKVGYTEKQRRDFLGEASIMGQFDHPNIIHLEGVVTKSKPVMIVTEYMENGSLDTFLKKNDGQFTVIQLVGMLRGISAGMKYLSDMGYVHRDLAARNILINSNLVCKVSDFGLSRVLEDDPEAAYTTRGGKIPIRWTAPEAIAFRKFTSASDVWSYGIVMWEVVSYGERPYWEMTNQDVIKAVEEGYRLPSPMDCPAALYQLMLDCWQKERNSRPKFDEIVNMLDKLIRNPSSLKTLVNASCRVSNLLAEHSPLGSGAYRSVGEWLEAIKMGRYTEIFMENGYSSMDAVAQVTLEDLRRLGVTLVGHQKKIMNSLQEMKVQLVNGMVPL
UniProt Q15375, residues 28-998: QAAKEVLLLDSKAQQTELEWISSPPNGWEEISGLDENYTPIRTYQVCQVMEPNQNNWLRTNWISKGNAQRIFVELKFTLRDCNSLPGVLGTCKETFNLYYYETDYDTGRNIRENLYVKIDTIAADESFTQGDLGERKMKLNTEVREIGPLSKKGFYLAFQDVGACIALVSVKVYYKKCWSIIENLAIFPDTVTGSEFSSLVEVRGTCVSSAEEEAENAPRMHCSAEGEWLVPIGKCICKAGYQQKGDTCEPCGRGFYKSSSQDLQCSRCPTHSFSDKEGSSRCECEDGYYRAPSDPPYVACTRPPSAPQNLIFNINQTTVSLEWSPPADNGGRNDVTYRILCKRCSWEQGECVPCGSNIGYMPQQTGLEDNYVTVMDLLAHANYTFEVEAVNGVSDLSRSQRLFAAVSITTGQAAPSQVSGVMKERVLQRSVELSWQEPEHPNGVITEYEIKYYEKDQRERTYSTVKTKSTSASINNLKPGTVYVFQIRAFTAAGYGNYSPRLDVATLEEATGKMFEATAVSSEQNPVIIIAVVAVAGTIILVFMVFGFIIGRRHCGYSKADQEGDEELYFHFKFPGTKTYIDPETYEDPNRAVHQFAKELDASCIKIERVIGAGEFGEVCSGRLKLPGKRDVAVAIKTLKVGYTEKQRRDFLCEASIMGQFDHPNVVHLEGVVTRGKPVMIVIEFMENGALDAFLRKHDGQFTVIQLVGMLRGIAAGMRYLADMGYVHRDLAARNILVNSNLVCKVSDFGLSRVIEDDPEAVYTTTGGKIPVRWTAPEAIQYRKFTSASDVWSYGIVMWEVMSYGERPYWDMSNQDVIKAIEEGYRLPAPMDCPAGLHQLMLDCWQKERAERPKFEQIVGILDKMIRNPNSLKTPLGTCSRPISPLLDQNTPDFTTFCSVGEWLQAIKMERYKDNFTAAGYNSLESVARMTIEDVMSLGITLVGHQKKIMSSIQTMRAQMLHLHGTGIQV

Legend:
FGFR1-HA = FGFR1-HA (UniProt P11362); experiment: co-IP; FGFR1-HA or FGFR3-HA co-expressed with Flag-tagged EphA and increasing doses of ΔJM,KD-EGFP in HEK293T cells; immunoprecipitation, SDS-PAGE and immunoblotting with the antibodies shown in the figure
FGFR3-HA = FGFR3-HA (UniProt P22607); experiment: as above

binding (FGFR1-HA): binds
binding (FGFR3-HA): binds
Molecule: Flag-tagged EphA2 (from UniProt P29317 24-976) (receptor)

binding (FGFR1-HA): binds
binding (FGFR3-HA): binds
Molecule: Flag-tagged EphA5 (from UniProt P54756 25-1037) (receptor)

binding (FGFR1-HA): binds
binding (FGFR3-HA): binds
Molecule: Flag-tagged EphA7 (from UniProt Q15375 28-998) (receptor)

binding (FGFR1-HA): binds
binding (FGFR3-HA): binds
B1: Flag-tagged EphA3 (receptor, UniProt P29320 21-983)
chain: ELIPQPSNEVNLLDSKTIQGELGWISYPSHGWEEISGVDEHYTPIRTYQVCNVMDHSQNNWLRTNWVPRNSAQKIYVELKFTLRDCNSIPLVLGTCKETFNLYYMESDDDHGVKFREHQFTKIDTIAADESFTQMDLGDRILKLNTEIREVGPVNKKGFYLAFQDVGACVALVSVRVYFKKCPFTVKNLAMFPDTVPMDSQSLVEVRGSCVNNSKEEDPPRMYCSTEGEWLVPIGKCSCNAGYEERGFMCQACRPGFYKALDGNMKCAKCPPHSSTQEDGSMNCRCENNYFRADKDPPSMACTRPPSSPRNVISNINETSVILDWSWPLDTGGRKDVTFNIICKKCGWNIKQCEPCSPNVRFLPRQFGLTNTTVTVTDLLAHTNYTFEIDAVNGVSELSSPPRQFAAVSITTNQAAPSPVLTIKKDRTSRNSISLSWQEPEHPNGIILDYEVKYYEKQEQETSYTILRARGTNVTISSLKPDTIYVFQIRARTAAGYGTNSRKFEFETSPDSFSISGESSQVVMIAISAAVAIILLTVVIYVLIGRFCGYKSKHGADEKRLHFGNGHLKLPGLRTYVDPHTYEDPTQAVHEFAKELDATNISIDKVVGAGEFGEVCSGRLKLPSKKEISVAIKTLKVGYTEKQRRDFLGEASIMGQFDHPNIIRLEGVVTKSKPVMIVTEYMENGSLDSFLRKHDAQFTVIQLVGMLRGIASGMKYLSDMGYVHRDLAARNILINSNLVCKVSDFGLSRVLEDDPEAAYTTRGGKIPIRWTSPEAIAYRKFTSASDVWSYGIVLWEVMSYGERPYWEMSNQDVIKAVDEGYRLPPPMDCPAALYQLMLDCWQKDRNNRPKFEQIVSILDKLIRNPGSLKIITSAAARPSNLLLDQSNVDITTFRTTGDWLNGVWTAHCKEIFTGVEYSSCDTIAKISTDDMKKVGVTVVGPQKKIISSIKALETQSKNGPVPV

binding (FGFR1-HA): binds
binding (FGFR3-HA): binds
B2: Flag-tagged EphA1 (receptor, UniProt P21709 26-976)
chain: KEVTLMDTSKAQGELGWLLDPPKDGWSEQQQILNGTPLYMYQDCPMQGRRDTDHWLRSNWIYRGEEASRVHVELQFTVRDCKSFPGGAGPLGCKETFNLLYMESDQDVGIQLRRPLFQKVTTVAADQSFTIRDLVSGSVKLNVERCSLGRLTRRGLYLAFHNPGACVALVSVRVFYQRCPETLNGLAQFPDTLPGPAGLVEVAGTCLPHARASPRPSGAPRMHCSPDGEWLVPVGRCHCEPGYEEGGSGEACVACPSGSYRMDMDTPHCLTCPQQSTAESEGATICTCESGHYRAPGEGPQVACTGPPSAPRNLSFSASGTQLSLRWEPPADTGGRQDVRYSVRCSQCQGTAQDGGPCQPCGVGVHFSPGARGLTTPAVHVNGLEPYANYTFNVEAQNGVSGLGSSGHASTSVSISMGHAESLSGLSLRLVKKEPRQLELTWAGSRPRSPGANLTYELHVLNQDEERYQMVLEPRVLLTELQPDTTYIVRVRMLTPLGPGPFSPDHEFRTSPPVSRGLTGGEIVAVIFGLLLGAALLLGILVFRSRRAQRQRQQRQRDRATDVDREDKLWLKPYVDLQAYEDPAQGALDFTRELDPAWLMVDTVIGEGEFGEVYRGTLRLPSQDCKTVAIKTLKDTSPGGQWWNFLREATIMGQFSHPHILHLEGVVTKRKPIMIITEFMENGALDAFLREREDQLVPGQLVAMLQGIASGMNYLSNHNYVHRDLAARNILVNQNLCCKVSDFGLTRLLDDFDGTYETQGGKIPIRWTAPEAIAHRIFTTASDVWSFGIVMWEVLSFGDKPYGEMSNQEVMKSIEDGYRLPPPVDCPAPLYELMKNCWAYDRARRPHFQKLQAHLEQLLANPHSLRTIANFDPRMTLRLPSLSGSDGIPYRTVSEWLESIRMKRYILHFHSAGLDTMECVLELTAEDLTQMGITLPGHQKRILCSIQGFKD
